# For part of these data: A negative result means that nothing was seen under these conditions. Tags and fusion partners may be left off the protein sequences shown. Construct, isoform or probe ends are uncertain for at least one entry. For part of these data: Weaker means in comparison with the reference protein, sequence or condition of that experiment.
# Assays:
# [1] = biological target: T1, GUN1-PS (Arabidopsis thaliana) (UniProt Q9SIC9); test: competition with a labelled probe; conditions: 5x buffer (4 ul per reaction): 50 mM Tris-HCl pH 7.5, 50 mM NaCl, 200 mM KCl, 5 mM MgCl2, 5 mM EDTA, 5 mM DTT, 0.25 mg/ml BSA, 5% glycerol, 30 min at 23 C, recombinant protein, residues 232-918, protein details: N-terminal TRX-His
# T1 sequence (looked up): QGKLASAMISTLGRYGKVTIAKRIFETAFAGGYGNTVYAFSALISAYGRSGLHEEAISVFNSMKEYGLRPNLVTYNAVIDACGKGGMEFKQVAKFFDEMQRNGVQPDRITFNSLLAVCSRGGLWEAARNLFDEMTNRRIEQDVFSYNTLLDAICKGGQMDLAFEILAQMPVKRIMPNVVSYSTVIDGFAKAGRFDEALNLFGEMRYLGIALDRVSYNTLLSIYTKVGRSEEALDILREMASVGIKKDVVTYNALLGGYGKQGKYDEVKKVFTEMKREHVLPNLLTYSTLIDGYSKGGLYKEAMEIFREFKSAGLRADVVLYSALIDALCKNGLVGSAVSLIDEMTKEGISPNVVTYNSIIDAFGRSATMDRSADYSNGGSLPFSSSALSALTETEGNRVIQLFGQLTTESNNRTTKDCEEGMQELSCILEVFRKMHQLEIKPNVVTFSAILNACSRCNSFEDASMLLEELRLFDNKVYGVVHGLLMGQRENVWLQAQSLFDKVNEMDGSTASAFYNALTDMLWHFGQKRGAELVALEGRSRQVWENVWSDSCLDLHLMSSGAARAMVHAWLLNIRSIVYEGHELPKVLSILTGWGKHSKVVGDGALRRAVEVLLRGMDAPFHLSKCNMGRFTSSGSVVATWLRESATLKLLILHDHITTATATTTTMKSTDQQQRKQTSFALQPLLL
# [2] = biological target: T1, GUN1-PS (Arabidopsis thaliana); test: EMSA; conditions: slight shift, 100-600 nM, weaker shift at 800 nM; 5x buffer (4 ul per reaction): 50 mM Tris-HCl pH 7.5, 50 mM NaCl, 200 mM KCl, 5 mM MgCl2, 5 mM EDTA, 5 mM DTT, 0.25 mg/ml BSA, 5% glycerol; 30 min at 23 C; recombinant protein; residues 232-918; protein details: N-terminal TRX-His
sequence,measurement,setting,value
AAGAGACAACCUGGCGAACUGAAAC [23S_104856 unlabeled],binding result,"[1]; vs Cy5-23S_104856, 5-50x, judged weak or nonspecific",binds
AAGAGACAACCUGGCGAACUGAAAC [23S_104856],binding result,[2],binds more weakly
AUUCUUAUGUGGCAGUCUCUAGUCCACUAGCUUUUG [nonspecific competitor for 23S and ndhG],binding result,"[1]; vs Cy5-ndhG, 5-50x",no binding

# Reference: paper PMC11671767, “GENOMES UNCOUPLED PROTEIN1 binds to plastid RNAs and promotes their maturation”
